Source: US20140309109A1, “N-Thio-anthranilamide compounds and their use as pesticides” (BASF SE, priority 2011, published 2014)
Some of these results come from one statement about several compounds together.

Assays:
Type in all cases: in vivo
[1] = system: Diamond Back Moth (Plutella xylostella); test: Diamond back moth cabbage leaf dip test; settings: 300 ppm; 72 hours after treatment; 3rd instar larvae on dipped cabbage leaves
Procedure: B.2 Diamond Back Moth (Plutella xylostella)
The active compound is dissolved at the desired concentration in a mixture of 1:1 (vol:vol) distilled water:aceteone. Surfactant (Alkamuls® EL 620) is added at a rate of 0.1% (vol/vol).The test solution is prepared at the day of use.
Leaves of cabbage were dipped in test solution and air-dried. Treated leaves were placed in petri dish eslined with moist filter paper and inoculated with ten 3rd instar larvae. Mortality was recorded 72 hours after treatment. Feeding damages were also recorded using a scale of 0-100%.

[2] = system: Orchid Thrips (Dichromothrips corbetti); test: Orchid thrips floral-immersion test; settings: 300 ppm; 72 hours after treatment; adult thrips on dipped orchid flowers
Procedure: B.3 Orchid Thrips (Dichromothrips corbetti)
Dichromothrips corbetti adults used for bioassay were obtained from a colony maintained continuously under laboratory conditions. For testing purposes, the test compound is diluted in a 1:1 mixture of acetone:water (vol:vol), plus 0.01% vol/vol Alkamuls® EL 620 surfactant.
Thrips potency of each compound was evaluated by using a floral-immersion technique. Plastic petri dishes were used as test arenas. All petals of individual, intact orchid flowers were dipped into treatment solution and allowed to dry. Treated flowers were placed into individual petri dishes along with about 20 adult thrips. The petri dishes were then covered with lids. All test arenas were held under continuous light and a temperature of about 28° C. for duration of the assay. After 3 days, the numbers of live thrips were counted on each flower, and along inner walls of each petri dish. The percent mortality was recorded 72 hours after treatment.

[3] = system: Silverleaf Whitefly (Bemisia argentifolii); test: Silverleaf whitefly cotton plant spray test; settings: 300 ppm; 3 days after treatment; whitefly adults on sprayed cotton plants
[4] = system: Southern Armyworm (Spodoptera eridania); test: Southern armyworm lima bean foliar spray test; settings: 1 ppm; 4 days after treatment; larvae on sprayed lima bean plants
Procedure: B.5 Southern Armyworm (Spodoptera eridania)
(§1) The active compounds were formulated in cyclohexanone as a 10,000 ppm solution supplied in tubes. The tubes were inserted into an automated electrostatic sprayer equipped with an atomizing nozzle and they served as stock solutions for which lower dilutions were made in 50% acetone:50% water (v/v). A nonionic surfactant (Kinetic®) was included in the solution at a volume of 0.01% (v/v).
(§2) Lima bean plants (variety Sieva) were grown 2 plants to a pot and selected for treatment at the 1st true leaf stage. Test solutions were sprayed onto the foliage by an automated electrostatic plant sprayer equipped with an atomizing spray nozzle. The plants were dried in the sprayer fume hood and then removed from the sprayer. Each pot was placed into perforated plastic bags with a zip closure. About 10 to 11 armyworm larvae were placed into the bag and the bags zipped closed. Test plants were maintained in a growth room at about 25° C. and about 20-40% relative humidity for 4 days, avoiding direct exposure to fluorescent light (24 hour photoperiod) to prevent trapping of heat inside the bags. Mortality and reduced feeding were assessed 4 days after treatment, compared to untreated control plants.

[5] = system: Vetch Aphid (Megoura viciae); test: Vetch aphid broad bean leaf disk microtiter test; settings: 2500 ppm; 5 days; adult aphids on sprayed broad bean leaf disks
Procedure: B.6 Vetch Aphid (Megoura viciae)
For evaluating control of vetch aphid (Megoura viciae) through contact or systemic means the test unit consisted of 24-well-microtiter plates containing broad bean leaf disks.
The compounds were formulated using a solution containing 75% v/v water and 25% v/v DMSO. Different concentrations of formulated compounds were sprayed onto the leaf disks at 2.5 μl, using a custom built micro atomizer, at two replications.
After application, the leaf disks were air-dried and 5-8 adult aphids placed on the leaf disks inside the microtiter plate wells. The aphids were then allowed to suck on the treated leaf disks and incubated at about 23±1° C. and about 50±5% relative humidity for 5 days. Aphid mortality and fecundity was then visually assessed.

[6] = system: Tobacco Budworm (Heliothis virescens); test: Tobacco budworm I (B.7a) cotton plant spray test; settings: 2500 ppm; 4 days after treatment; larvae on sprayed cotton plants (B.7a)
Procedure: B.7a Tobacco Budworm (Heliothis virescens) I
as §1
as §2, with “Cotton” for “Lima bean”, “plants” for “plants (variety Sieva)”, “cotyledon” for “1st true leaf”, “budworm” for “armyworm”

[7] = system: Tobacco Budworm (Heliothis virescens); test: Tobacco budworm I (B.7b) cotton plant spray test; settings: 10 ppm; 4 days after treatment; larvae on sprayed cotton plants (B.7b)
Procedure: B.7b Tobacco Budworm (Heliothis virescens) I
as §1
as §2, with “Cotton” for “Lima bean”, “plants” for “plants (variety Sieva)”, “cotyledon” for “1st true leaf”, “budworm” for “armyworm”

[8] = system: Boll Weevil (Anthonomus grandis); test: Boll weevil insect diet microtiter test; settings: 2500 ppm; 5 days; eggs on sprayed insect diet
Procedure: B.8 Boll Weevil (Anthonomus grandis)
For evaluating control of boll weevil (Anthonomus grandis) the test unit consisted of 24-well-microtiter plates containing an insect diet and 20-30 A. grandis eggs.
The compounds were formulated using a solution containing 75% v/v water and 25% v/v DMSO. Different concentrations of formulated compounds were sprayed onto the insect diet at 20 μl, using a custom built micro atomizer, at two replications.
After application, microtiter plates were incubated at about 23±1° C. and about 50±5% relative humidity for 5 days. Egg and larval mortality was then visually assessed.

[9] = system: Colorado Potato Beetle (Leptinotarsa decemlineata); test: Colorado potato beetle eggplant foliage spray test; settings: 10 ppm; 4 days after treatment; larvae on sprayed eggplant foliage
Procedure: B.9 Colorado Potato Beetle (Leptinotarsa decemlineata)
as §1
Eggplants were grown 2 plants to a pot and were selected for treatment at the 1st true leaf stage. Test solutions were sprayed onto the foliage by an automated electrostatic plant sprayer equipped with an atomizing spray nozzle. The plants were dried in the sprayer fume hood and then removed from the sprayer. The treated foliage was then cut and removed from the pot and placed in a Petri dish lined with moistened filter pa-per. Five beetle larvae were introduced into each Petri dish and the dish was covered by a Petri dish lid. Petri dishes were maintained in a growth room at about 25° C. and about 20-40% relative humidity for 4 days, avoiding direct exposure to fluorescent light (24 hour photoperiod) to prevent trapping of heat inside the dishes. Mortality and reduced feeding were assessed 4 days after treatment, compared to untreated control plants.

[10] = system: Cowpea Aphid (Aphis craccivora); test: Cowpea aphid spray test on potted cowpea plants; settings: 300 ppm; assessed after 72 hours; sprayed cowpea plants
Procedure: B.1 Cowpea Aphid (Aphis craccivora)
The active compound is dissolved at the desired concentration in a mixture of 1:1 (vol:vol) distilled water:acetone. Surfactant (Alkamuls® EL 620) is added at a rate of 0.1% (vol/vol). The test solution is prepared at the day of use.
Potted cowpea plants were colonized with approximately 50-100 aphids of various stages by manually transferring a leaf tissue cut from infested plant 24 hours before application. Plants were sprayed after the pest population has been recorded. Treated plants are maintained on light carts at about 28° C. Percent mortality was assessed after 72 hours

Cc1cc(Cl)cc(C(=O)N=S(CC2CC2)C(C)C)c1NC(=O)c1cc(C(F)(F)F)nn1-c1ncccc1Cl (centres unmarked) [Compound 2]
at least 75%: mortality in comparison with untreated controls [1] | mortality in comparison with untreated controls [2] | mortality in comparison with untreated controls [3] | mortality in comparison with untreated controls [4] | mortality in comparison with untreated controls [5] | mortality in comparison with untreated controls [6] | mortality in comparison with untreated controls [7] | mortality (egg and larval) in comparison with untreated controls [8] | mortality in comparison with untreated controls [9]

Cc1cc(Cl)cc(C(=O)N=S(C(C)C)C2CC2)c1NC(=O)c1cc(C(F)(F)F)nn1-c1ncccc1Cl (centres unmarked) [Compound 5]
at least 75%: mortality in comparison with untreated controls [10] | mortality in comparison with untreated controls [1] | mortality in comparison with untreated controls [2] | mortality in comparison with untreated controls [4] | mortality in comparison with untreated controls [5] | mortality in comparison with untreated controls [6] | mortality in comparison with untreated controls [7] | mortality (egg and larval) in comparison with untreated controls [8] | mortality in comparison with untreated controls [9]

Cc1cc(C#N)cc(C(=O)N=S(CCC2CC2)CCC2CC2)c1NC(=O)c1cc(C(F)(F)F)nn1-c1ncccc1Cl [Compound 12]
at least 75%: mortality in comparison with untreated controls [10] | mortality in comparison with untreated controls [1] | mortality in comparison with untreated controls [2] | mortality in comparison with untreated controls [3] | mortality in comparison with untreated controls [4] | mortality in comparison with untreated controls [5] | mortality in comparison with untreated controls [6] | mortality (egg and larval) in comparison with untreated controls [8] | mortality in comparison with untreated controls [9]

Cc1cc(C#N)cc(C(=O)N=S(CCC2CC2)C(C)C)c1NC(=O)c1cc(C(F)(F)F)nn1-c1ncccc1Cl (centres unmarked) [Compound 14]
at least 75%: mortality in comparison with untreated controls [10] | mortality in comparison with untreated controls [1] | mortality in comparison with untreated controls [2] | mortality in comparison with untreated controls [3] | mortality in comparison with untreated controls [4] | mortality in comparison with untreated controls [5] | mortality in comparison with untreated controls [6] | mortality (egg and larval) in comparison with untreated controls [8] | mortality in comparison with untreated controls [9]

Cc1cc(Cl)cc(C(=O)N=S(CCC2CC2)CCC2CC2)c1NC(=O)c1cc(C(F)(F)F)nn1-c1ncccc1Cl [Compound 11]
at least 75%: mortality in comparison with untreated controls [1] | mortality in comparison with untreated controls [2] | mortality in comparison with untreated controls [3] | mortality in comparison with untreated controls [4] | mortality in comparison with untreated controls [5] | mortality in comparison with untreated controls [6] | mortality in comparison with untreated controls [7] | mortality (egg and larval) in comparison with untreated controls [8]

Cc1cc(Cl)cc(C(=O)N=S(CCC2CC2)C(C)C)c1NC(=O)c1cc(C(F)(F)F)nn1-c1ncccc1Cl (centres unmarked) [Compound 13]
at least 75%: mortality in comparison with untreated controls [1] | mortality in comparison with untreated controls [2] | mortality in comparison with untreated controls [3] | mortality in comparison with untreated controls [4] | mortality in comparison with untreated controls [5] | mortality in comparison with untreated controls [6] | mortality in comparison with untreated controls [7] | mortality (egg and larval) in comparison with untreated controls [8] | mortality in comparison with untreated controls [9]

Cc1cc(Cl)cc(C(=O)N=S(CC2CCC2)C(C)C)c1NC(=O)c1cc(C(F)(F)F)nn1-c1ncccc1Cl (centres unmarked) [Compound 17]
at least 75%: mortality in comparison with untreated controls [1] | mortality in comparison with untreated controls [2] | mortality in comparison with untreated controls [3] | mortality in comparison with untreated controls [4] | mortality in comparison with untreated controls [5] | mortality in comparison with untreated controls [6] | mortality in comparison with untreated controls [7] | mortality (egg and larval) in comparison with untreated controls [8] | mortality in comparison with untreated controls [9]

CCS(CC1CCC1)=NC(=O)c1cc(Cl)cc(C)c1NC(=O)c1cc(C(F)(F)F)nn1-c1ncccc1Cl (centres unmarked) [Compound 9]
at least 75%: mortality in comparison with untreated controls [1] | mortality in comparison with untreated controls [2] | mortality in comparison with untreated controls [3] | mortality in comparison with untreated controls [4] | mortality in comparison with untreated controls [5] | mortality in comparison with untreated controls [6] | mortality in comparison with untreated controls [7] | mortality (egg and larval) in comparison with untreated controls [8] | mortality in comparison with untreated controls [9]

CCS(CCC1CC1)=NC(=O)c1cc(Cl)cc(C)c1NC(=O)c1cc(C(F)(F)F)nn1-c1ncccc1Cl (centres unmarked) [Compound 15]
at least 75%: mortality in comparison with untreated controls [1] | mortality in comparison with untreated controls [2] | mortality in comparison with untreated controls [3] | mortality in comparison with untreated controls [4] | mortality in comparison with untreated controls [5] | mortality in comparison with untreated controls [6] | mortality in comparison with untreated controls [7] | mortality (egg and larval) in comparison with untreated controls [8] | mortality in comparison with untreated controls [9]
